The list does not hold the whole screen: it is rich in T/C values a quarter to a half above the control, in often repeated tests (any T/C) and in doses without a T/C. Further doses and runs are listed elsewhere. T/C is the treated group as % of the vehicle group. Some entries give survivors of the animals treated and no T/C: the source holds a T/C of zero for them, seemingly a mark for toxic or unscored doses. Some survivor counts are full or nearly so, which does not show that the dose was tolerated: survival well below the control is almost never listed, so the zero probably covers shortened survival too. Survivors were counted at the toxicity check, usually on the fifth day, unless a day is given; later deaths do not show. Schedules are NCI's codes, taken here to give the interval after Q, in days (D) or hours (H), and the number of doses after X. Some entries were tested several times; their values stand side by side, smallest first. For survival time, the PubChem record calls one and a half times the control and up active, and a quarter to a half above the control has no call in these data; cut-offs in other NCI protocols can differ.
Tested on: BDF1 mice, P388 leukemia ip, median survival T/C
Experiment: NCI In Vivo Anticancer Drug Screen. Data for tumor model P388 Leukemia (intraperitoneal) in B6D2F1 (BDF1) mice
Conditions: T/C endpoint: median survival time, higher T/C = longer survival
Procedure, shortened: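 Steps: implant the tumour, treat one group with compound and another with vehicle, record survival, then divide treated by control.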

[1] = dose: 75.0 mg/kg/injection, schedule: Q01DX009 (ip), vehicle: saline
[2] = dose: 200.0 mg/kg/injection, schedule: Q01DX009 (ip), vehicle: Klucel (hydroxypropylcellulose) (HPC)

O=C(Oc1ccc([N+](=O)[O-])cc1)c1ccc(CBr)cc1
survivor count (dose: 100.0 mg/kg/injection, schedule: Q01DX009 (ip), vehicle: saline): 4 of 6
survivor count (dose: 400.0 mg/kg/injection, schedule: Q04DX003 (ip), vehicle: saline): 3 of 6

CN(C)c1ncnc2c1ncn2C1OC(CO)C(N)C1O (stereo not given)
T/C (dose: 21.0 mg/kg/injection, schedule: Q01DX009 (ip), vehicle: saline): 147 % of control
T/C [1]: 130 % of control
survivor count [1]: 6 of 6

CCN(c1ccccc1)c1ccc(C=O)cc1
survivor count (dose: 400.0 mg/kg/injection, schedule: Q04DX003 (ip), vehicle: Klucel (hydroxypropylcellulose) (HPC)): 6 of 6

Clc1ccc(-c2cc[s+]s2)cc1
survivor count (dose: 100.0 mg/kg/injection, schedule: Q01DX009 (ip), vehicle: water): 2 of 6
survivor count (dose: 200.0 mg/kg/injection, schedule: Q04DX003 (ip), vehicle: water): 0 of 6

Cn1c(=O)c2c(c3ccccc31)Oc1oc3ccc4ccccc4c3c(=O)c1C2
survivor count (dose: 100.0 mg/kg/injection, schedule: Q01DX009 (ip), vehicle: saline with Tween-80): 5 of 6

CC(C)CC(NC(=O)C(O)C(N)Cc1ccccc1)C(=O)O (stereo not given)
survivor count (dose: 300.0 mg/kg/injection, schedule: Q01DX009 (ip), vehicle: saline with Tween-80): 0 of 6 and 3 of 6

CC(=O)O.[Au].c1ccc([PH+](c2ccccc2)c2ccccc2)cc1
survivor count (dose: 200.0 mg/kg/injection, schedule: Q04DX003 (ip), vehicle: saline with Tween-80): 1 of 6
survivor count (dose: 400.0 mg/kg/injection, schedule: Q04DX003 (ip), vehicle: saline with Tween-80): 0 of 6

CN(C)N=C(c1ccccc1)c1ccccc1
survivor count (dose: 150.0 mg/kg/injection, schedule: Q01DX009 (ip), vehicle: Klucel (hydroxypropylcellulose) (HPC)): 0 of 6
survivor count (dose: 225.0 mg/kg/injection, schedule: Q01DX009 (ip), vehicle: Klucel (hydroxypropylcellulose) (HPC)): 0 of 6
survivor count (dose: 335.0 mg/kg/injection, schedule: Q01DX009 (ip), vehicle: Klucel (hydroxypropylcellulose) (HPC)): 0 of 6

O=C(NN=C1CCCCC1)c1ccccc1
survivor count [2]: 2 of 6
survivor count (dose: 335.0 mg/kg/injection, schedule: Q04DX003 (ip), vehicle: Klucel (hydroxypropylcellulose) (HPC)): 2 of 6

NOc1ccc([N+](=O)[O-])cc1[N+](=O)[O-]
survivor count (dose: 16.5 mg/kg/injection, schedule: Q01DX009 (ip), vehicle: Klucel (hydroxypropylcellulose) (HPC)): 6 of 6
T/C (dose: 25.0 mg/kg/injection, schedule: Q01DX009 (ip), vehicle: Klucel (hydroxypropylcellulose) (HPC)): 125 % of control
survivor count (dose: 55.0 mg/kg/injection, schedule: Q01DX009 (ip), vehicle: Klucel (hydroxypropylcellulose) (HPC)): 0 of 6

CCOC(=O)Nc1cc(NC(c2ccccc2)c2ccccc2)c2[nH]cnc2n1
T/C (dose: 30.0 mg/kg/injection, schedule: Q04DX003 (ip), vehicle: saline with Tween-80): 133 % of control

O=[N+]([O-])c1ccc(N/N=C/CCl)c([N+](=O)[O-])c1
T/C (dose: 11.0 mg/kg/injection, schedule: Q04DX003 (ip), vehicle: saline with Tween-80): 127 % of control
T/C (dose: 25.0 mg/kg/injection, schedule: Q04DX003 (ip), vehicle: saline with Tween-80): 130 % of control
T/C (dose: 37.5 mg/kg/injection, schedule: Q04DX003 (ip), vehicle: saline with Tween-80): 140 % of control

CC[C@H](C)c1occ2c(O)c(C(=O)O)c(=O)cc-2c1C
survivor count (dose: 50.0 mg/kg/injection, schedule: Q01DX009 (ip), vehicle: Klucel (hydroxypropylcellulose) (HPC)): 3 of 3
survivor count (dose: 100.0 mg/kg/injection, schedule: Q01DX009 (ip), vehicle: Klucel (hydroxypropylcellulose) (HPC)): 0 of 3
survivor count [2]: 0 of 3

COc1cc2c3cc1Oc1c(OC)c(OC)cc4c1C(Cc1ccc(O)c(c1)-c1cc(ccc1OC)CC3N(C)CC2)N(C)CC4 (stereo not given)
survivor count (dose: 0.78 mg/kg/injection, schedule: Q01DX009 (ip), vehicle: Klucel (hydroxypropylcellulose) (HPC)): 6 of 6
T/C (dose: 1.56 mg/kg/injection, schedule: Q01DX009 (ip), vehicle: Klucel (hydroxypropylcellulose) (HPC)): 136 % of control
T/C (dose: 3.13 mg/kg/injection, schedule: Q01DX009 (ip), vehicle: Klucel (hydroxypropylcellulose) (HPC)): 134 % of control
T/C (dose: 6.25 mg/kg/injection, schedule: Q01DX009 (ip), vehicle: Klucel (hydroxypropylcellulose) (HPC)): 127 % of control
survivor count (dose: 12.5 mg/kg/injection, schedule: Q01DX009 (ip), vehicle: carboxymethylcellulose (CMC)): 6 of 6
survivor count (dose: 25.0 mg/kg/injection, schedule: Q01DX009 (ip), vehicle: carboxymethylcellulose (CMC)): 6 of 6

O=c1c2ccccc2nc(-c2ccccc2Cl)n1/N=C/c1cccc([N+](=O)[O-])c1
survivor count (dose: 50.0 mg/kg/injection, schedule: Q01DX009 (ip), vehicle: saline with Tween-80): 6 of 6

COc1cccc2c1C(=O)c1c(O)c3c(c(O)c1C2=O)C[C@@](O)(C(C)O)C[C@@H]3OC1CC(N(Cc2ccccc2)Cc2ccccc2)C(O)C(C)O1 (stereo not given in full)
T/C (dose: 10.0 mg/kg/injection, schedule: Q01DX009 (ip), vehicle: water): 130 % of control
